Amino acid sequences for entries named in this document (tags omitted).
UniProt E7F6Z2: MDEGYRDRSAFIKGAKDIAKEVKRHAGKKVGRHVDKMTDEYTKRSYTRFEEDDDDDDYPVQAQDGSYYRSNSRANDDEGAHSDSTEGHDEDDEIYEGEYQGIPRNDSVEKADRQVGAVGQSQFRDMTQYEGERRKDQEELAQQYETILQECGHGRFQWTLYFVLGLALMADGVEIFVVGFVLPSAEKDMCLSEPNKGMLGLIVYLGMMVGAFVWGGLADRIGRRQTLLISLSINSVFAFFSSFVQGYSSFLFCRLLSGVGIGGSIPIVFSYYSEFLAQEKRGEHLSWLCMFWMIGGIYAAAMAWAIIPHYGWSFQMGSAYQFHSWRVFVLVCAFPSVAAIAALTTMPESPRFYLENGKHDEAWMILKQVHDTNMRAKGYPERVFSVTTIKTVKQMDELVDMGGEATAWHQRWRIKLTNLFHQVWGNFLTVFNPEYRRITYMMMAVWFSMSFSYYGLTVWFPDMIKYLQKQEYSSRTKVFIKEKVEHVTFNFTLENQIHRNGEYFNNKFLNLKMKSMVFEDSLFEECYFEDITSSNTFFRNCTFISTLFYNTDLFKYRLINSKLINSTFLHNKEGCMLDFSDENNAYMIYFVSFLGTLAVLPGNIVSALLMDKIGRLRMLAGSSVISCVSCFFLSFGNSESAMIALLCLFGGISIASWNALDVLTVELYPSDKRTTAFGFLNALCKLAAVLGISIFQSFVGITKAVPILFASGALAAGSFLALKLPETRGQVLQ

According to publication PMC7092623:

Key:
Experiment in all cases: affinity purification with mass spectrometry; eGFP-Rab28 (WT, Q72L or T26N) held on GFP-Trap beads from 5 dpf larval whole-eye lysates (100 eyes per replicate); IP lysis buffer 50 mM Tris HCl pH 7.5, 150 mM NaCl, 10 mM MgCl2, 1% NP-40, 1 mM DTT; 4°C, 2 h or overnight; on-bead trypsin digest, Q-Exactive; LFQ, t-test against eGFP only control
[1] = target: eGFP-Rab28 (wild type) (zebrafish) (UniProt Q7ZVW0)
[2] = target: eGFP-Rab28 Q72L (GTP-preferring) (zebrafish) (UniProt Q7ZVW0)
[3] = target: eGFP-Rab28 T26N (GDP-preferring) (zebrafish) (UniProt Q7ZVW0)

Measured: binding

Synaptic vesicle glycoprotein 2A (from UniProt E7F6Z2 1-733)
binds: [1] | [2] | [3]

These are yes or no findings as the source states them, for the method shown. Binding seen in cells or lysates may run through a third protein. These calls come from enrichment with a bait or labelling near it, and not all partners need be listed.
